Results are given in words; binding and its absence hold for the method and conditions named. Binding seen in cells or lysates may run through a third protein. A result given as binding can be weak or reduced; the word gives no strength. Tags and fused reporters may be left off the sequences shown.
Biological target: T1, YFP-GAI (Arabidopsis thaliana) (UniProt Q9LQT8)
T1 sequence: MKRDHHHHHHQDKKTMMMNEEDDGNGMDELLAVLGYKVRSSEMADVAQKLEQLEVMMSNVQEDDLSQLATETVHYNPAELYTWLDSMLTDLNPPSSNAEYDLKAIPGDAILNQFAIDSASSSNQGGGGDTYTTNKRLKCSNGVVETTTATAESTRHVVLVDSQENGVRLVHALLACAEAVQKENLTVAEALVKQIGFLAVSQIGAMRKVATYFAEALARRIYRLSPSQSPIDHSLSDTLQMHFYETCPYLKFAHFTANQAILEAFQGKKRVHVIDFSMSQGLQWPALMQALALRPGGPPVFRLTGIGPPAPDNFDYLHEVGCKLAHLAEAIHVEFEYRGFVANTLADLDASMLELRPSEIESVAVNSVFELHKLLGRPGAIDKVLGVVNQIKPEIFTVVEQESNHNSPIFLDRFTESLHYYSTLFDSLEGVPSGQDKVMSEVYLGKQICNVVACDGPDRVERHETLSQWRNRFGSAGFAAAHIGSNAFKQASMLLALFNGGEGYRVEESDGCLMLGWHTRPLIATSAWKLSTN
Experiment: co-IP; agroinfiltrated N. benthamiana leaves expressing HA-ARR1 or HA-ARR1ΔDDK and YFP-GAI; precipitated with anti-GFP, HA fusions detected

binding: binds
Substance: HA-ARR1ΔDDK (Arabidopsis thaliana) (domain or fragment)

Source: PMC4489807
